Not every detail of the peptide structures is certain; ends, links or a residue may be inferred. No end group written: not given here.
Target: T1, GST-LRRK2[1326-2527, G2019S] (Homo sapiens, UniProt Q5S007, G2019S)
T1 construct: made in house; host or cells: HEK 293 cells, pEBG-2T vector
T1 sequence (Q5S007 1326-2527 G2019S): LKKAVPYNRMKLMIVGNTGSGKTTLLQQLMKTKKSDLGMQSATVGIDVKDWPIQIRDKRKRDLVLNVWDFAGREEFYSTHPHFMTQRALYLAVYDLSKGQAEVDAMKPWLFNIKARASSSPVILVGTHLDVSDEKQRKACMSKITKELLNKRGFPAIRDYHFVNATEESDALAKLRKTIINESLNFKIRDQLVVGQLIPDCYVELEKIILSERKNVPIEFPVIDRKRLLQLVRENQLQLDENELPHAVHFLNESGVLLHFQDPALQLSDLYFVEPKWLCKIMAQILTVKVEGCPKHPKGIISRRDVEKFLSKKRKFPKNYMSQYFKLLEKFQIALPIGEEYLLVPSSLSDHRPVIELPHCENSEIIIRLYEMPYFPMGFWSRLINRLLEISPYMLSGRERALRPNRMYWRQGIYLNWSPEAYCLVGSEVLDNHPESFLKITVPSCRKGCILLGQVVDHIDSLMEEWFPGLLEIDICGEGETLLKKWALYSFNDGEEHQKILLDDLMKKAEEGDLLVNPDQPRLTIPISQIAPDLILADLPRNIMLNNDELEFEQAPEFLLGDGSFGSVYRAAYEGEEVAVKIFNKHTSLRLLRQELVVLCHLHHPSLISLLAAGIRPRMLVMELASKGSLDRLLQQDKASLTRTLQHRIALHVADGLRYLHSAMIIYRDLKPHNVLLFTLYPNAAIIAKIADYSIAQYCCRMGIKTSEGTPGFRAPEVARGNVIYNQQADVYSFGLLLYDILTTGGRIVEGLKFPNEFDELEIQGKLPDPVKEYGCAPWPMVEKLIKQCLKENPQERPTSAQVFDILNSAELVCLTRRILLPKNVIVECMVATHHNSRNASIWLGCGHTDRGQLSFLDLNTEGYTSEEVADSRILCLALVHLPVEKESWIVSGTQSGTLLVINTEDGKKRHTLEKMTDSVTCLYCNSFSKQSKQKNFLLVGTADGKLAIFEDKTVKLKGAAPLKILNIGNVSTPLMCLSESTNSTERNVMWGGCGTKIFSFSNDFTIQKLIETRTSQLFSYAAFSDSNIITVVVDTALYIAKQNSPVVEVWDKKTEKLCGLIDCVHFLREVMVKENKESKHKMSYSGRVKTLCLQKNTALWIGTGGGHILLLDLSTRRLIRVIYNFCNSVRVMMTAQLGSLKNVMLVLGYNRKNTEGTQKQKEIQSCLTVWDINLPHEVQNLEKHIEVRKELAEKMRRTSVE
Assay: Assay of LRRK2 using LRRKtide as substrate (G2019S mutant)
Type: biochemical
Protocol: Assay of LRRK2 using LRRKtide as substrate. Assays were set up in a total volume of 50 μl of Buffer A containing 0.5-0.7 μg of either wild type or mutant forms LRRK2, 10 mM MgCl2 and 0.1 mM [γ^32P]-ATP (300 cpm/pmol) in the presence of 300 μM or the indicated concentration of LRRKtide (RLGRDKYKTLRQIRQ; SEQ ID NO:1) peptide substrate. After incubation for 30 min at 30° C., reactions were terminated by applying 40 μl of the reaction mixture onto P81 phosphocellulose paper and phosphorylation of LRRKtide was quantified following washing the P81 phosphocellulose in 50 mM phosphoric acid and Cherenkov counting. One Unit (U) of LRRK2 activity was defined as the amount of enzyme that catalysed the incorporation of 1 nmol of ^32P into LRRKtide. Km and Vmax parameters were determined by performing the assay described above using varying concentration of LRRKtide. The Km and Vmax parameters were calculated using the Graph-Pad prism programme.

RLGRDKYKTLRQIRQ [LRRKtide, RLGRDKYKTLRQIRQ]
Vmax of LRRKtide phosphorylation, G2019S relative to non-mutated enzyme (G2019S versus non-mutated GST-LRRK2[1326-2527]): ~2.5 fold | specific activity of a pure preparation of LRRK2[G2019S] towards LRRKtide (extrapolated from Vmax and approximately 5% enzyme purity): 200 U/mg
